{"sequences": {"note": "Protein sequences, listed by entry. Tags and fused reporters are not part of them. Lines headed by an entry give the natural chain unless they say otherwise; changes in a name come on top.", "UniProt Q01638": "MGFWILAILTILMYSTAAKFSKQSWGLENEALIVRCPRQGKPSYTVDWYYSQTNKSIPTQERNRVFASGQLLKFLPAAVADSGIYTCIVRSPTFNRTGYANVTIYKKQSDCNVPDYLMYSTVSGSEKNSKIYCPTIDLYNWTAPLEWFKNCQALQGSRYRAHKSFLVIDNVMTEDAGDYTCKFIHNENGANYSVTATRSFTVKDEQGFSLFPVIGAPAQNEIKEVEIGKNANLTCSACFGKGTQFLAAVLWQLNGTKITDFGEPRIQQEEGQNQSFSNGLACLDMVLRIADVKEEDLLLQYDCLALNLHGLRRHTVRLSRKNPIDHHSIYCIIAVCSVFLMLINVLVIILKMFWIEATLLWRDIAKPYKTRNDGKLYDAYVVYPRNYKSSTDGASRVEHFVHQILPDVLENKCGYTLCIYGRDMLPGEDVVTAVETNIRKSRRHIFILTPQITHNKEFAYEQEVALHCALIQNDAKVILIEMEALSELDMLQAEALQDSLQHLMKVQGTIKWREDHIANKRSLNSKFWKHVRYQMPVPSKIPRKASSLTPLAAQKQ"}, "source": "PubChem BioAssay AID1259354", "about": "(Paczesny and Yang Labs, IUPUI and University of Michigan, 2018)", "note": "Screen size: about 78,000 compounds; about 1,800 (2.3%) were called active. The shares of active, inactive and inconclusive entries below differ from those in the screen. Cut-off read from the data, not from the text of the source: active = inhibition above about 30%; inconclusive = mostly about 10% to 28%; inactive = weaker than that.", "data": [{"target": "Interleukin-1 receptor-like 1 (Homo sapiens) (UniProt Q01638)", "experiment": "inhibitors of human ST2 (IL1RL1) binding to IL-33, primary screen, biochemical, AlphaLISA (AID 1259354)", "settings": "AlphaLISA ST2-Fc/biotin-IL-33 interaction, 1 h; at 17 µM, active compounds read high", "values": [{"smiles": "CCOc1ccccc1CN1CCN(c2ccc(Cl)cc2)CC1", "inhibition": "inconclusive: 24%"}, {"smiles": "OC1CCN(Cc2cccnc2)CC1", "inhibition": "inactive"}, {"smiles": "COCCNC(=S)NC[C@H]1C[C@@H]2CCN1C[C@@H]2CN1C[C@@H]2C[C@H](C1)c1cccc(=O)n1C2", "inhibition": "inactive"}, {"smiles": "CN1C(=O)C2(CCN(CCS(=O)(=O)c3ccccc3)CC2)c2ccccc21", "inhibition": "inactive"}, {"smiles": "Cc1ccccc1N1CCN(Cc2ccc(O)cc2)CC1", "inhibition": "inactive"}, {"smiles": "O=C(c1cnccn1)N1C[C@@H]2C[C@H](C1)c1c(-c3cccs3)ccc(=O)n1C2", "inhibition": "inactive"}, {"smiles": "CCc1ccc(CN2CCN(c3ccc([N+](=O)[O-])cc3)CC2)cc1", "inhibition": "inconclusive: 27%"}, {"smiles": "O=C(NCc1ccc2c(c1)OCO2)[C@H]1CN2CCC1C[C@@H]2Cn1cc(-c2ccc(-c3ccccc3)cc2)nn1", "note": "(stereo not given in full)", "inhibition": "inconclusive: 14%"}, {"smiles": "O[C@@H]1C[C@H]2CN(C3CCN(c4ncccn4)CC3)C[C@H]2C[C@@H]1O", "inhibition": "inactive"}, {"smiles": "Cc1ccccc1CN1CCN(c2ccc([N+](=O)[O-])cc2)CC1", "inhibition": "active: 36%"}, {"smiles": "O=S(=O)(NC[C@H]1C[C@@H]2CCN1C[C@@H]2CN1CCc2ccccc21)c1ccccc1", "inhibition": "inconclusive: 19%"}, {"smiles": "O=C(CCN1C(=O)c2cccc([N+](=O)[O-])c2C1=O)Nc1ccc(Cl)cc1C(=O)c1ccccc1", "inhibition": "inconclusive: 10%"}, {"smiles": "COc1ccc(C23CCC(=O)C=C2N(C)CC3)cc1OC", "note": "(stereo not given)", "inhibition": "inconclusive: 13%"}, {"smiles": "N[C@@H](CCl)C(=O)O", "inhibition": "inconclusive: 24%"}, {"smiles": "C=CCN(C)C[C@H]1CN2CC[C@H]1C[C@@H]2CNC(=S)Nc1ccccc1", "inhibition": "inconclusive: 11%"}, {"smiles": "C(#CCN1CCCCC1)COc1ccccc1", "inhibition": "inactive"}, {"smiles": "CC(=Nc1ccccc1N)c1c(O)n(C)c(=O)n(C)c1=O", "inhibition": "inconclusive: 15%"}, {"smiles": "CN1CC2(CCCN(CCc3ccccn3)C2)OC1=O", "note": "(stereo not given)", "inhibition": "inconclusive: 23%"}, {"smiles": "Cc1nc(-c2cccs2)cc([C@H]2CN3CC[C@H]2C[C@@H]3CNC(=O)Nc2cccc(C(F)(F)F)c2)n1", "inhibition": "inconclusive: 12%"}, {"smiles": "C=C(C)[C@H]1Cc2c(ccc3c2O[C@@H]2COc4cc(OC)c(OC)cc4[C@@H]2C3=O)O1", "inhibition": "inconclusive: 11%"}, {"smiles": "Cc1nc(-c2ccco2)cc([C@H]2CN3CC[C@H]2C[C@@H]3CNC(=O)C2CCC2)n1", "inhibition": "inconclusive: 14%"}, {"smiles": "COc1ccccc1-c1cc([C@H]2CN3CC[C@H]2C[C@@H]3CNC(=S)NCC(C)C)n(C)n1", "inhibition": "inactive"}, {"smiles": "O=C(c1cccs1)N1C[C@@H]2C[C@H](C1)c1c(-c3cncnc3)ccc(=O)n1C2", "inhibition": "inactive"}, {"smiles": "CN1C(=O)C2(CCN(Cc3noc(-c4ccco4)n3)CC2)c2ccccc21", "inhibition": "inconclusive: 16%"}, {"smiles": "CC[C@H]1CN2CC[C@H]1C[C@@H]2CNC(=S)Nc1ccc(C#N)cc1", "inhibition": "inconclusive: 18%"}]}]}
